Measured values: PubChem BioAssay AID662 (National Center for Advancing Translational Sciences (NCATS), 2007)
Where “and” joins values, the source holds several entries; their conditions need not be identical. Equal values may be shown once. The list shows a part of the results. The main result of the screen is listed elsewhere. These columns were measured beside it and carry no call. The list favours compounds with an active or inconclusive main result. Potencies come from curve fits of mixed quality, noted in brackets.

Assay: Cell signaling CRE-BLA (Fsk stim)
Settings: CHO CRE-bla reporter (cAMP response element driving beta-lactamase), forskolin EC10, beta-lactamase ratio; measured here: 460 nm blue channel
Summary of the method: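 CHO CRE-bla cells, overnight plating in Opti-MEM with 0.5% dialyzed FBS; cpd titration + EC10 NKH 477, 3 h 37 °C; CCF4 2 h RT; ex 405/em 460 vs 530 ratio → %Activity, AC50.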

SMILES	AC50
C=CCn1cc(Cl)c(=O)n(CC=C)c1=O	3.16 µM [rising, single point]
O=C1CCCC2=C1C(c1ccco1)Nc1ccc(C(=O)c3ccccc3)cc1N2 (stereo not drawn)	7.94 µM [falling, partial curve]
O=C(CSc1nc(O)c(Cc2ccccc2F)c(=O)[nH]1)N1CCCCCC1	0.631 µM [falling, full curve]
COc1cc2c(cc1OC)CN(S(=O)(=O)c1ccc3c(c1)OCCO3)CC2	7.94 µM [falling, partial curve]
CCCSc1nc2c(c(=O)[nH]c(=O)n2C)n1C	15.8 µM [rising, single point]
COc1cc(C(Nc2ccc3c(c2)OCO3)C(=O)NC2CCCCC2)cc(OC)c1OC (stereo not drawn)	0.00398 µM [falling, full curve, poor fit]
O=C(NCc1cccs1)C(Cc1ccccc1)NS(=O)(=O)c1cccs1 (stereo not drawn)	0.1 µM [falling, partial curve]
S=c1[nH]nc(Cc2ccccc2)n1-c1ccccc1	25.1 µM [rising, single point]
CN1CCN(C(=O)c2ccc(-c3nn(C)c(=O)c4ccccc34)cc2)CC1	12.6 µM [rising, single point]
CCOC(=O)c1cc(C(=O)OCC)cc(-n2c(C)cc(C(=O)CN3CCOCC3)c2C)c1	0.251 µM [falling, partial curve]
O=S(=O)(c1cccs1)N1CCN(C/C=C/c2ccccc2)CC1	0.02 µM [falling, full curve, poor fit]
COc1ccc(CNc2nc(-c3cccc(NS(C)(=O)=O)c3)nc3ccccc23)c(OC)c1	0.0794 µM [falling, partial curve]
CC1CN(C(=O)CN2C(=O)c3ccccc3S2(=O)=O)CC(C)O1 (stereo not drawn)	5.01 µM [falling, single point]
CCOC(=O)c1sc(=N)n(-c2ccc(OC)cc2)c1C	10 µM [rising, partial curve]
COc1cccc(Cn2c(=O)c(C)nc3cnc(N(C)C)nc32)c1	12.6 µM [rising, partial curve]
CN1CCN(c2ccc(NC(=O)Cc3ccccc3)cc2)CC1	0.00316 µM [falling, full curve, poor fit]
COC(=O)CCC(=O)Nc1ccc(S(=O)(=O)N2CCCCCC2)cc1	0.00398 µM [falling, full curve, poor fit]
CCOc1ccc2ccccc2c1C(=O)N[C@@H]1C(=O)N2[C@@H]1SC(C)(C)[C@@H]2C(=O)O	7.94 µM [falling, partial curve]
N#Cc1cnn(-c2ccccc2)c1N	0.00631 µM [falling, partial curve, poor fit]
C=C(C)COc1ccc2c(C)c(CC(=O)OC)c(=O)oc2c1C	10 µM [rising, partial curve]
COc1cc(-c2nnc(SCC(=O)OC3CCCCC3)o2)cc(OC)c1OC	15.8 µM [rising, single point]
Cc1cc(N)ccc1-n1c(C)ccc1C	0.0251 µM [falling, full curve, poor fit]
COC(=O)Nc1ccc(S(=O)(=O)N2CCCc3ccccc32)cc1	0.0631 µM [falling, single point]

Some of these compounds in order of heavy-atom count, low to high.
SMILES	AC50
N#Cc1cnn(-c2ccccc2)c1N	0.00631 µM [falling, partial curve, poor fit]
C=CCn1cc(Cl)c(=O)n(CC=C)c1=O	3.16 µM [rising, single point]
CCCSc1nc2c(c(=O)[nH]c(=O)n2C)n1C	15.8 µM [rising, single point]
S=c1[nH]nc(Cc2ccccc2)n1-c1ccccc1	25.1 µM [rising, single point]
CCOC(=O)c1sc(=N)n(-c2ccc(OC)cc2)c1C	10 µM [rising, partial curve]
O=S(=O)(c1cccs1)N1CCN(C/C=C/c2ccccc2)CC1	0.02 µM [falling, full curve, poor fit]
COC(=O)Nc1ccc(S(=O)(=O)N2CCCc3ccccc32)cc1	0.0631 µM [falling, single point]
COC(=O)CCC(=O)Nc1ccc(S(=O)(=O)N2CCCCCC2)cc1	0.00398 µM [falling, full curve, poor fit]
O=C(NCc1cccs1)C(Cc1ccccc1)NS(=O)(=O)c1cccs1 (stereo not drawn)	0.1 µM [falling, partial curve]
COc1cc2c(cc1OC)CN(S(=O)(=O)c1ccc3c(c1)OCCO3)CC2	7.94 µM [falling, partial curve]
COc1cc(-c2nnc(SCC(=O)OC3CCCCC3)o2)cc(OC)c1OC	15.8 µM [rising, single point]
O=C1CCCC2=C1C(c1ccco1)Nc1ccc(C(=O)c3ccccc3)cc1N2 (stereo not drawn)	7.94 µM [falling, partial curve]
CCOC(=O)c1cc(C(=O)OCC)cc(-n2c(C)cc(C(=O)CN3CCOCC3)c2C)c1	0.251 µM [falling, partial curve]
COc1ccc(CNc2nc(-c3cccc(NS(C)(=O)=O)c3)nc3ccccc23)c(OC)c1	0.0794 µM [falling, partial curve]

The results go on:

SMILES	AC50
Cc1ccc(S(=O)(=O)N2CCN(S(=O)(=O)N(C)C)CC2)cc1	3.98 µM [rising, single point]
Cn1c(=O)c(C(=O)NC2CCCCCCC2)c(O)c2ccccc21	12.6 µM [rising, partial curve]
CCOC(=O)CC(=O)CSc1ccc2nnc(-c3ccccc3)n2n1	5.01 µM [rising, partial curve]
Cc1nc2ccc(Nc3nc4cc(S(=O)(=O)N5CCOCC5)ccc4o3)cc2s1	10 µM [rising, partial curve]
Cc1ccc2cccc(NC(=O)c3ccc(Br)o3)c2n1	10 µM [rising, single point]
NCCCNCCCCN(CCCN)/[N+]([O-])=N/O	31.6 µM [falling, partial curve, poor fit]
O=C(NC1CCCCC1)c1cnn2c(C(F)(F)F)cc(-c3ccco3)nc12	0.398 µM [rising, full curve]
CC(=O)c1ccc(N2CCN(C(=O)c3ccc(NC(=O)C4CCCO4)cc3)CC2)cc1 (stereo not drawn)	0.1 µM [falling, single point]
CC1=NN(c2ccccc2)C(=O)C1	15.8 µM [falling, partial curve, poor fit] and 126 nM [falling, full curve, poor fit]
CCOc1cc2[nH]c(=O)n(CCCCCC(=O)NCc3ccc4c(c3)OCO4)c(=O)c2cc1OCC	12.6 µM [falling, partial curve]
O=C(COC(=O)C1CCN(S(=O)(=O)c2cccs2)CC1)c1cc2ccccc2o1	3.98 µM [falling, partial curve]
COc1ccc(C2C3=C(CC(C)(C)CC3=O)Oc3ncn4nc(-c5cccnc5)nc4c32)cc1OC (stereo not drawn)	1.26 µM [rising, full curve]
Nc1ncnc2c1nc(-c1ccccc1)n2[C@H]1O[C@@H](CO)[C@@H](O)[C@H]1O	3.98 µM [rising, single point]
CC(C)(C)Cn1nc(-c2ccc(Cl)cc2)c2c(N)ncnc21	0.398 µM [rising, full curve]
CCC(Cl)CC(Cl)C(Cl)C(Cl)C(Cl)C(C)Cl (stereo not drawn)	2.51 µM [rising, full curve, poor fit]
Cc1ccc2c(Cl)cc(Cl)c(OCC(=O)NC(=O)NCc3ccco3)c2n1	12.6 µM [rising, partial curve]
O=C(Nc1ccc(F)c(F)c1)NC1CCCCC1	0.1 µM [rising, full curve]
CCCOc1ccccc1C1NC(=O)NC(C)=C1C(=O)OCCOC(C)C (stereo not drawn)	0.00398 µM [falling, full curve, poor fit]
Cc1ccc(C2=Nc3ccccc3NC(C)(c3ccc(C)o3)C2)o1 (stereo not drawn)	12.6 µM [rising, single point]
Cc1cc(C)n(-c2ccc(C(=O)Nc3sccc3C(N)=O)cc2)n1	5.01 µM [rising, partial curve]
NC(N)=NCCC[C@H](N)C(=O)O	31.6 µM [falling, single point]
Nc1ccccc1OCCOCCOCCOc1ccccc1N	25.1 µM [rising, single point]
Cc1ccc2c(c1C)NC(C(=O)O)C1CC=CC21 (stereo not drawn)	3.98 µM [falling, single point]

SMILES	AC50
CC(=O)CC1OC(=O)C(Br)=C1NCc1ccccc1 (stereo not drawn)	10 µM [falling, single point]
O=C(C1COc2ccccc2O1)N1CCN(c2ccccc2)CC1 (stereo not drawn)	0.00398 µM [falling, full curve]
Cc1cc(C)n2nc(SCC(=O)Nc3ccc(F)cc3)nc2n1	3.98 µM [rising, full curve]
CCOC(=O)C(C)Sc1nc2c(c(=O)[nH]c(=O)n2C)n1Cc1ccc(Cl)cc1 (stereo not drawn)	15.8 µM [rising, partial curve]
O=C(O)CCCC(=O)N1CCN(c2cccc(Cl)c2)CC1	0.398 µM [rising, full curve, poor fit]
COc1cc(NC(=O)Nc2cccc(C(C)=O)c2)cc(OC)c1OC	12.6 µM [rising, partial curve]
Cc1nnc(NC(=O)CCCN2C(=O)c3ccccc3C2=O)s1	3.16 µM [rising, single point]
CC1=Nn2c(nnc2-c2ccccc2Cl)SC1	2.51 µM [falling, full curve, poor fit]
Cn1c(CCCNC(=O)c2cccs2)nc2ccccc21	10 µM [rising, partial curve]
COc1ccc(C(=O)Nc2cc(C)on2)cc1	0.00316 µM [falling, full curve, poor fit]
COc1cc(C(=O)OCc2cc3ccccc3[nH]c2=O)cc(OC)c1OC	1.26 µM [rising, partial curve]
CCOc1ccc2[nH]c3c(N4CCN(c5ccccn5)CC4)ncnc3c2c1	20 µM [falling, single point]
N#CCCSc1ncnc2c1oc1ccccc12	10 µM [rising, partial curve]
CCCOC(=O)c1cc(=O)[nH]c2ccccc12	10 µM [rising, single point] and 12.6 µM [rising, partial curve]
Clc1nc2ccccc2nc1Cl	25.1 µM [falling, partial curve, poor fit]
COc1cc(-c2c(C#N)c(N)nc3c2CCCC3)ccc1O	6.31 µM [rising, partial curve]
COc1ccc(-c2csc(N3CCN(C(=O)c4ccco4)CC3)n2)cc1	25.1 µM [falling, single point]
O=C(Nc1cc(C(=O)N2CCOCC2)cc(C(=O)N2CCOCC2)c1)c1cc(F)c(F)cc1Cl	0.00501 µM [falling, full curve, poor fit]
O=C(Cc1cccs1)Nc1ccccn1	20 µM [rising, single point]
O=C(Cn1cnc2c(nnn2-c2ccccc2)c1=O)NCCc1ccccc1	12.6 µM [rising, partial curve]
CN1CCN(c2ncc3nc(CCc4ccccc4)c(=O)n(CCc4ccccc4)c3n2)CC1	15.8 µM [rising, partial curve]
O=C(CSc1nnc(-c2ccco2)n1-c1ccccc1)N1CCOCC1	0.158 µM [rising, full curve]

Random excerpt: two records from the list.
SMILES	AC50
CN1CCN(c2ncc3nc(CCc4ccccc4)c(=O)n(CCc4ccccc4)c3n2)CC1	15.8 µM [rising, partial curve]
CN1CCN(c2ccc(NC(=O)Cc3ccccc3)cc2)CC1	0.00316 µM [falling, full curve, poor fit]
